Earlier results in US20050220774A1, “Methods of inducing differentiation in ex vivo expanded stem cells” (priority 2002, published 2005).
At least one structure is not confirmed: it was looked up by name or label, or the drawing left a doubt.

Legend:
CD14 and CD11b = settings: for induction of CD14 and CD11b expression in response to D3: THP-1 cells; for D3-induced expression of CD14 and CD11b: peripheral blood monocytes
CD38 = settings: cells exposed to retinoic acid
HL-60 cells = settings: nanomolar concentrations

Row | Structure (SMILES) | induction of CD14 and CD11b expression in response to D3 (CD14 and CD11b) | D3-induced expression of CD14 and CD11b (CD14 and CD11b) | CD38 mRNA expression and membrane CD38 antigen (CD38) | granulocytic differentiation (HL-60 cells)
1 | O=c1cc(N2CCOCC2)oc2c(-c3ccccc3)cccc12 [LY294002] | reversed | inhibited | prevent increased CD38 mRNA expression | 
2 | COC[C@H]1OC(=O)c2coc3c2[C@@]1(C)C1=C(C3=O)[C@@H]2CCC(=O)[C@@]2(C)C[C@H]1OC(C)=O [wortmannin] | reversed | inhibited | prevent increased CD38 mRNA expression | prevented the differentiation process
